Some results were stated once for a whole list of compounds, not compound by compound. Some compounds share one range, which may span the group rather than tell each member.
Test: DLS particle size / self-assembly of the compounds in aqueous solution
Type: physicochemical
Details: for DLS particle size range (nm): micro-nano structure, 20 μM working solution in deionized water
Experimental: The term “particle size” refers to the size of particles, also known as “granularity” or “diameter”. When a certain physical characteristic or physical behavior of the measured particle is closest to a homogeneous sphere (or combination) of a certain diameter, the diameter (or combination) of the sphere is taken as the equivalent particle size of the measured particle. The particle size parameter of the micro-nano structure of the present invention is measured by the principle of dynamic light scattering (DLS), specifically measured by a laser particle size analyzer.
Taking the self-assembled micro-nano structure of Compound II-1 as an example, II-1 was dissolved in DMSO (also can be an organic solvent such as ethanol) to prepare a 2 mM storage solution, and a small amount of storage solution was added to deionized water to prepare 20 μM working solution. Took 10 μL and dropped it on copper mesh, observed and analyzed under transmission electron microscope (TEM), cryo-transmission electron microscope. Took 10 μL and dropped it on mica plate, observed and analyzed under atomic force microscope (AFM). In FIGS. 5, A, B, C and D were TEM photographs, cryo-transmission electron microscope photographs, AFM photographs, and AFM analysis data, respectively. According to the photographs and data, II-1 was self-assembled into nanosheets with a diameter of 40-70 nm and a thickness of 3.7-3.9 nm. […]
Among them, the particle size test results of II-12 to II-15 in aqueous solution are shown in FIG. 6, and the results of dynamic light scattering DLS of II-16 to 1-18 are shown in FIG. 7).

Structure (SMILES) | self-assembly to a micro-nano structure in aqueous solution | other results
CCN1C(=CC=C2CCCC(C=CC3=C(C#N)C(=C(C#N)C#N)OC3(C)C)=C2Cl)Sc2ccccc21 [II-17] | showed self-assembly behavior in aqueous solution | DLS particle size range (nm) (listed as Compound II-17): 10-300 nm
CCN1C(=CC=C2CCCC(C=CC3=C(C#N)C(=C(C#N)C#N)OC3(C)C)=C2Cl)C(C)(C)c2ccc3ccccc3c21 [II-14] | showed self-assembly behavior in aqueous solution | DLS particle size range (nm) (listed as Compound II-14): 10-300 nm
C#CCOc1ccc(C2CC(=CC=C3N(CC)c4ccccc4C3(C)C)C(Cl)=C(C=CC3=C(C#N)C(=C(C#N)C#N)OC3(C)C)C2)cc1 (centres unmarked) [II-13] | showed self-assembly behavior in aqueous solution | DLS particle size range (nm) (listed as Compound II-13): 10-300 nm
C#CCOc1ccc(C2CC(=CC=C3N(CC)c4ccccc4C3(C)C)C(NCCn3ccnc3[N+](=O)[O-])=C(C=CC3=C(C#N)C(=C(C#N)C#N)OC3(C)C)C2)cc1 (centres unmarked) [II-15] | showed self-assembly behavior in aqueous solution | DLS particle size range (nm) (listed as Compound II-15): 10-300 nm
CCN(CC)c1ccc2c(c1)OC1=C(C=C3CCCC(C=CC4=C(C#N)C(=C(C#N)C#N)OC4(C)C)=C3Cl)CCCC1=C2 [II-18] | showed self-assembly behavior in aqueous solution | DLS particle size range (nm) (listed as Compound II-18): 10-300 nm
CCn1c(=CC=C2CCCC(C=CC3=C(C#N)C(=C(C#N)C#N)OC3(C)C)=C2Cl)c2cccc3cccc1c32 [II-16] | showed self-assembly behavior in aqueous solution | DLS particle size range (nm) (listed as Compound II-16): 10-300 nm
C=CCOc1ccc(C2CC(=CC=C3N(CC)c4ccccc4C3(C)C)C(Cl)=C(C=CC3=C(C#N)C(=C(C#N)C#N)OC3(C)C)C2)cc1 (centres unmarked) [II-12] | showed self-assembly behavior in aqueous solution | DLS particle size range (nm) (listed as Compound II-12): 10-300 nm

From patent publication US20220105183A1, “MICRO-NANO STRUCTURE FORMED BY SELF-ASSEMBLING ORGANIC SMALL MOLECULE COMPOUND AND USE THEREOF” (Qingdao University of Science and Technology, priority 2018, published 2022)
